In PMC8692896:
These are yes or no findings as the source states them, for the method shown. In cells and extracts the contact can be indirect. A yes stands for co-enrichment or nearness to the bait. Other partners may have been found. Sequences can lack the tags named with a protein.

Biological target: T1, Flag-tagged human CPT1a (carnitine palmitoyl transferase 1a) (human) (UniProt P50416)
T1 sequence: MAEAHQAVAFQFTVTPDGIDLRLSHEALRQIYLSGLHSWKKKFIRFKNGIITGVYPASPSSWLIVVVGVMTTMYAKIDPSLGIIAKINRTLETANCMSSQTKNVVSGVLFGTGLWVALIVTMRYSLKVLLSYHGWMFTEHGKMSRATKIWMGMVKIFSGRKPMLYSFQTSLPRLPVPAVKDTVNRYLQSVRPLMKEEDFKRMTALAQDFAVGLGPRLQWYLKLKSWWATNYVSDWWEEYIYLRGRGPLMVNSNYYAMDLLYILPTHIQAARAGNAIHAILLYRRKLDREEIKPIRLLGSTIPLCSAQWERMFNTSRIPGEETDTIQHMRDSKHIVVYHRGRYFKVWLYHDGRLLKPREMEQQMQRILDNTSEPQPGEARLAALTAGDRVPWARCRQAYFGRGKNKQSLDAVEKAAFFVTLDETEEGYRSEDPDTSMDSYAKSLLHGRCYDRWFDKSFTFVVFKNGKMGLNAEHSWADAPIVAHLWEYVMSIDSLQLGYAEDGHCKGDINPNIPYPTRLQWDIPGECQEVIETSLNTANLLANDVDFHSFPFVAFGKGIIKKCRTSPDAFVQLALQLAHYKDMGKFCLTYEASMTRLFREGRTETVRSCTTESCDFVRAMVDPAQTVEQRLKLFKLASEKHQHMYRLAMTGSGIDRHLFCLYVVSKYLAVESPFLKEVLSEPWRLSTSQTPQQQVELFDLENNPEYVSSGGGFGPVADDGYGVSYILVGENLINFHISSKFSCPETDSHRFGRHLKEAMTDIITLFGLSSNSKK
Assay: affinity purification with mass spectrometry; CPT1a-flag complexes purified on anti-flag M2 magnetic beads from 293T cells overexpressing CPT1a-flag or empty vector; SDS-PAGE, gel digestion, LC-MS/MS; also analysed by Western blot

B1: ubiquitin-specific peptidase 50 (USP50), endogenous in 293T cells (enzyme, UniProt Q70EL3 1-339)
chain: MTSQPSLPADDFDIYHVLAECTDYYDTLPVKEADGNQPHFQGVTGLWNLGNTCCVNAISQCLCSILPLVEYFLTGKYITALQKFLLPSDCSEVATAFAYLMTDMWLGDSDCVSPEIFWSALGNLYPAFTKKMQQDAQEFLICVLNELHEALKKYHYSRRRSYEKGSTQRCCRKWITTETSIITQLFEEQLNYSIVCLKCEKCTYKNEVFTVFSLPIPSKYECSLRDCLQCFFQQDALTWNNEIHCSFCETKQETAVRASISKAPKIIIFHLKRFDIQGTTKRKLRTDIHYPLTNLDLTPYICSIFRKYPKYNLCAVVNHFGDLDGGHYTAFCKNSVTQA
- binding: binds
